From article PMC12142651 come the findings set out here.

By UniProt entry, the sequences of proteins in these tests, tags left out.
UniProt Q96LA8: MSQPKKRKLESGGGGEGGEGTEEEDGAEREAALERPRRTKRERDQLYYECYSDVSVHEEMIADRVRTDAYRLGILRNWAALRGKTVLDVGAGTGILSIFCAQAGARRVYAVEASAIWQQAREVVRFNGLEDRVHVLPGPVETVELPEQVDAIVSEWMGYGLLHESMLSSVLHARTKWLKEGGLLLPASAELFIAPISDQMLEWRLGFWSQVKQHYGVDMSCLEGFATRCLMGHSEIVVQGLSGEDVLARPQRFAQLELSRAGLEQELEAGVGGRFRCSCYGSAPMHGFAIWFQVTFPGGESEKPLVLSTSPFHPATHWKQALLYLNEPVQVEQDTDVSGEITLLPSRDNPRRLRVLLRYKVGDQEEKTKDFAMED

No constants are given. Whether binding was seen depends on the method and setting. Some entries that bind do so weakly or less than the wild type. Where a sequence is shown, tags or fusion partners need not be part of it.

The assay deals with T1, GST-RBM39 (UniProt Q14498).
T1 sequence: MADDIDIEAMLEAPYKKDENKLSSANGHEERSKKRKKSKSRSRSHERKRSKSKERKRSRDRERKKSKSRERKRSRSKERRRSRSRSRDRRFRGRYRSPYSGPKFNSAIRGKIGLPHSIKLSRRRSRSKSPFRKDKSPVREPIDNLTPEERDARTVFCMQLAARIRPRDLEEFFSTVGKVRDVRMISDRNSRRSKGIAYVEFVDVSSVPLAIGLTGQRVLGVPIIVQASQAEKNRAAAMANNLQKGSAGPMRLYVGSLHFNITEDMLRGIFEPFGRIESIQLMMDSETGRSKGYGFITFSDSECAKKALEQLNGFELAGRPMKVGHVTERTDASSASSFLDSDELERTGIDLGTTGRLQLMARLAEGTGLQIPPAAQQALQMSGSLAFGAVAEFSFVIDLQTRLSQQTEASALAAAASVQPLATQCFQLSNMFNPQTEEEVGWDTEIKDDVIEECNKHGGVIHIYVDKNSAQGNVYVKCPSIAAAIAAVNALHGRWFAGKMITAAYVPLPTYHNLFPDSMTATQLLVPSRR
The assay is described as follows: pull-down; GST or GST-tagged protein on glutathione-sepharose beads, incubated with His-tagged protein for 4 hours at 4 °C; immunoblotting with anti-His/GST antibody; both purified.

“His-PRMT6 (from UniProt Q96LA8 1-375) (enzyme)”: the binding result is reported as “binds”.
